Some of the results follow. Bounds are passed on as bounds.

The labels stand for the following.
B1: il2ra_site1_2b5i_normal_mot_HHH_b2_03466_af2_000000069_0001_42_56_H_._HHH_b2_05266_af2_0001_0000200015_0000001_0 (protein)
chain: SSSSSDEEEAKKAYELLEEANQIEDPEEARRLLEEAKKLAEEVNNRALLKFIERALEQLGSSSSS
B2: il2ra_site1_1z92_sap_25_mot_HHH_b2_05274_af2_000000237_0001_23_40_H_._HHH_b2_00297_0001_0000400044_0000001_0_0001_af2pred_0001_af2pred_swapped (protein)
chain: DLKRDLERSEEFFGDPRQALKAALRAIAAREGDPEEAVKALKEVLEELNDPELERLLKELAEKRR
B3: il2ra_site1_1z92_sap_13_mot_HHH_b1_07881_000000176_0001_43_56_H_._HHH_b2_03446_0001_0000700049_0000001_0_0001_af2pred_0001_af2pred_1 (protein)
chain: SSSSDEQLEWLEKQIRRALERGSERLAQRLIEMVRQWAEDFDDEEAREVAEELQRILEELSSSSS
B4: il2ra_site2_2erj_normal_mot_d8db7d3d6fba55db16f38f4fb78be25a_0001_af2_000000045_0001_18_32_H_._HHH_b1_06675_af2_0001_0000500008_0000001_0 (protein)
chain: SSSSELTMFAFKLVSRLAAELGLDAEQALELFEFALRLLERGVSEEEIKELVEELAEQLRGSSSS
B5: il2ra_site1_2b5i_normal_mot_HHH_b2_04910_000000118_0001_1_19_H_._HHH_b1_03255_af2_0001_0000100004_0000001_0_af2pred_dldesign_0_af2pred (protein)
chain: SSSSSGEEFRKALEEIERLFKEGKLEEATKLAEEALARARAARRALHARILELILKQILESSSSS
B6: il2ra_site1_2b5i_normal_mot_0e5a94e4a5addaac739760efb25f0f5d_0001_000000208_0001_18_32_H_._HHH_b2_07956_af2_0001_0000400021_0000001_0_af2pred_0001_af2pred (protein)
chain: SSSSTDEELELLRLITRALWLLRREGDEELVEELHELAREALHKDDPELLREAVEIAKEVNSSSS
B7: il2ra_site2_3nfp_sap_28_mot_HHH_b2_05281_000000198_0001_39_56_H_._71fa3b3ce36e4cc21c7110f2bf27d1ce_0001_af2_0001_0000100005_0000001_1_0001 (protein)
chain: SSSSSSEVEELFREVEELLERGDRYQAAQLILEMSRLAAERNDPEAARLVLELYKRALGSSSSSS
B8: il2ra_site2_2erj_sap_15_mot_HHH_b1_07182_000000298_0001_1_15_H_._HHH_b1_05853_af2_0001_0000900017_0000001_0_0001 (protein)
chain: SSSSSEETLKLLLEMAEEAYKEGDRARLELILRFLELSLRDTGDPRVEEAFREVEELLERLSSSS
B9: il2ra_site1_1z92_normal_mot_0a54d8a7266968de9ae0346ffe2baff0_0001_af2_000000020_0001_37_50_H_._84ee3a8f0a65711069ec53bc75935faa_0001_0001_0000100010_0000001_1 (protein)
chain: PLLEEDIQRALEEGNVEEVAEEIFRLAEEDAGDPKLASQFLKTLLKKAGVPPEEVERIVEKLERK
B10: il2ra_site2_3nfp_sap_21_mot_HHH_b2_03978_000000149_0001_1_20_H_._8dc8e935950a1f8e5bdf62a2e89caa87_0001_0001_0000500013_0000001_0_0001 (protein)
chain: SSSSDVEERLQELLEELERLIEEGDEERAKEILRELAHIAYRNNNPEVYFRVAELAFKVFGSSSS
B11: il2ra_site2_3nfp_normal_mot_HHH_b2_01155_000000159_0001_38_52_H_._HHH_b1_01900_af2_0001_0000300029_0000001_0 (protein)
chain: SSSSSEDEERVKELLEKAERYYEEGNPEEVEELLAEALEIAFERRDSELFMLVAEVAFRLRSSSS
B12: il2ra_site2_3nfp_normal_mot_HHH_b1_00660_af2_000000090_0001_40_57_H_._HHH_b1_01870_0001_0000500057_0000001_0_af2pred_0001_af2pred (protein)
chain: SSSSSSSEEEVERLLEEAEHIDDPEERRKVLLKASRIALENNNFELFAEVILVAERLRSSSSSSS
B13: il2ra_site2_2erj_sap_18_mot_801aa9fa2b252c557f093b13e8332d46_0001_000000136_0001_17_32_H_._HHH_b1_06640_0001_0000400009_0000001_1_0001 (protein)
chain: SSSSSESEERVKELLEEAERLYEEGNLHEVYKLAVEALRVAAENGDEELLRLIAEVIERLSSSSS
B14: il2ra_site1_1z92_normal_mot_HHH_b2_05238_af2_000000252_0001_38_55_H_._HHH_b1_07174_af2_0001_0000900012_0000001_0 (protein)
chain: SSSSKEEALEIMFRAVERALRAGDPRAAKRLLEFFRKQVEIEGDPEAKELLEELERLLEELSSSS
B15: il2ra_site1_2b5i_sap_17_mot_HHH_b1_07343_000000001_0001_1_17_H_._2604b9d93cf3bfb2f9660f4e92ac741a_0001_0001_0000600056_0000001_0_0001 (protein)
chain: SSSSSTDELEERANELFFEASRVPDPEEREKLLREALELAREGNDPKLEEEIRQMLERLGSSSSS
B16: il2ra_site1_1z92_sap_13_mot_HHH_b2_04040_af2_000000226_0001_19_35_H_._32095df27da28122ece9101737e5990b_0001_0001_0000200013_0000001_0_0001_af2pred_0001_af2pred (protein)
chain: SSSSSDEEEEEAEKVVEEVVELFGLDEEEEKLLERLARLALKQGISPEQIRRVLEDALELSSSSS
B17: il2ra_site2_2erj_sap_26_mot_3cad0fa5fd511b0551b272d6504d3e9d_0001_1_000000059_0001_37_51_H_._8e845404a349e0f791f287ce38454f41_0001_0001_0000200007_0000001_0_000 … (protein)
chain: SSSSSLHELFRLANEALRLLSEGDPEEAREVIEQLEELAEETNSRTVRDIVEALKKLLEMLSSSS
B18: il2ra_site2_3nfp_normal_mot_HHH_b2_07498_000000057_0001_1_14_H_._HHH_b2_00986_0002_0000200008_0000001_0 (protein)
chain: SSSSDIEERVKELLEEARELLEEGDFFEAAHLVVEATRLATEGNDPELAREVLELYELIKGSSSS

The target of this assay is il2ra, P01589. Put plainly: yeast display titration.
As to B1, the apparent Kd (usually the concentration giving half-maximal binding under the conditions of the assay) was “inactive: no binding seen”.

As for B2, the “apparent Kd” value is “inactive: no binding seen”.

Regarding B3, the apparent Kd is inactive: > 5.82 nM.

With B4, the “apparent Kd” value is “inactive: no binding seen”.

On to B5, for which the “apparent Kd” value is “inactive: no binding seen”.

For B6, the “apparent Kd” value is “inactive: no binding seen”.

For the molecule B7, the “apparent Kd” value was “inactive: no binding seen”.

Regarding B8, the “apparent Kd” value is “inactive: no binding seen”.

On to B9, for which the “apparent Kd” value was “inactive: no binding seen”.

For the molecule B10, the “apparent Kd” value is “inactive: no binding seen”.

On to B11, for which the “apparent Kd” value was “inactive: no binding seen”.

As for B12, the “apparent Kd” value was “inactive: no binding seen”.

Consider B13, for which the “apparent Kd” value was “inactive: no binding seen”.

In the case of B14, the “apparent Kd” value is “inactive: no binding seen”.

For the molecule B15, the “apparent Kd” value was “inactive: no binding seen”.

In the case of B16, the “apparent Kd” value was “inactive: no binding seen”.

For the molecule B17, the “apparent Kd” value was “inactive: no binding seen”.

Turning to B18, the “apparent Kd” value was “inactive: no binding seen”.

These data come from publication PMC10163288.
